This is one part of the list.
What was measured:
Experiment in all cases: glycan array binding signal (z-score within array); higher = stronger binding
Conditions in all cases: glycan notation: IUPAC condensed, linker removed
[1] = target: Neu5Ac(a2-3)Gal6S(b1-4)[Fuc(a1-3)]GlcNAc
How it was run: (§1)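 Arrays were curated from the Consortium for Functional Glycomics database, 3228 in total, and kept only where the protein sequence was available. Binding is expressed as a within-array Z-score. This score was averaged across arrays of the same protein sequence at different concentrations or buffers and across linkers, and negative values can be read as non-binding.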

Neu5Ac(a2-3)GalNAc = target: Neu5Ac(a2-3)GalNAc
How it was run: as §1

[2] = target: Neu5Ac(a2-3)GalNAc(b1-4)GlcNAc
How it was run: as §1

[3] = target: Neu5Ac(a2-3)[GalNAc(b1-4)]Gal(b1-4)Glc
How it was run: as §1

[4] = target: Neu5Ac(a2-3)[GalNAc(b1-4)]Gal(b1-4)GlcNAc
How it was run: as §1

[5] = target: Neu5Ac(a2-3)[GalNAc(b1-4)]Gal(b1-4)GlcNAc(b1-3)GalNAc
How it was run: as §1

[6] = target: Neu5Ac(a2-3)[Neu5Ac(a2-6)]GalNAc
How it was run: as §1

Neu5Ac(a2-6)Gal = target: Neu5Ac(a2-6)Gal
How it was run: as §1

Neu5Ac(a2-6)Gal(b1-4)Glc = target: Neu5Ac(a2-6)Gal(b1-4)Glc
How it was run: as §1

[7] = target: Neu5Ac(a2-6)Gal(b1-4)GlcNAc
How it was run: as §1

[8] = target: Neu5Ac(a2-6)Gal(b1-4)GlcNAc(b1-2)Man(a1-3)Man(b1-4)GlcNAc(b1-4)GlcNAc
How it was run: as §1

[9] = target: Neu5Ac(a2-6)Gal(b1-4)GlcNAc(b1-2)Man(a1-3)[Gal(b1-4)GlcNAc(b1-2)Man(a1-6)]Man(b1-4)GlcNAc(b1-4)GlcNAc
How it was run: as §1

[10] = target: Neu5Ac(a2-6)Gal(b1-4)GlcNAc(b1-2)Man(a1-3)[GlcNAc(b1-2)Man(a1-6)]Man(b1-4)GlcNAc(b1-4)GlcNAc
How it was run: as §1

[11] = target: Neu5Ac(a2-6)Gal(b1-4)GlcNAc(b1-2)Man(a1-3)[GlcNAc(b1-2)Man(b1-4)GlcNAc(b1-2)Man(a1-6)]Man(b1-4)GlcNAc(b1-4)GlcNAc
How it was run: as §1

[12] = target: Neu5Ac(a2-6)Gal(b1-4)GlcNAc(b1-2)Man(a1-3)[Man(a1-6)]Man(b1-4)GlcNAc(b1-4)GlcNAc
How it was run: as §1

[13] = target: Neu5Ac(a2-6)Gal(b1-4)GlcNAc(b1-2)Man(a1-3)[Neu5Ac(a2-6)Gal(b1-4)GlcNAc(b1-2)Man(a1-6)]Man(b1-4)GlcNAc(b1-4)GlcNAc
How it was run: as §1

[14] = target: Neu5Ac(a2-6)Gal(b1-4)GlcNAc(b1-2)Man(a1-6)Man(b1-4)GlcNAc(b1-4)GlcNAc
How it was run: as §1

[15] = target: Neu5Ac(a2-6)Gal(b1-4)GlcNAc(b1-2)Man(a1-6)[Gal(b1-4)GlcNAc(b1-2)Man(a1-3)]Man(b1-4)GlcNAc(b1-4)GlcNAc
How it was run: as §1

[16] = target: Neu5Ac(a2-6)Gal(b1-4)GlcNAc(b1-2)Man(a1-6)[GlcNAc(b1-2)Man(a1-3)]Man(b1-4)GlcNAc(b1-4)GlcNAc
How it was run: as §1

[17] = target: Neu5Ac(a2-6)Gal(b1-4)GlcNAc(b1-2)Man(a1-6)[Man(a1-3)]Man(b1-4)GlcNAc(b1-4)GlcNAc
How it was run: as §1

[18] = target: Neu5Ac(a2-6)Gal(b1-4)GlcNAc(b1-3)Gal(b1-3)GlcNAc
How it was run: as §1

[19] = target: Neu5Ac(a2-6)Gal(b1-4)GlcNAc(b1-3)Gal(b1-4)GlcNAc
How it was run: as §1

[20] = target: Neu5Ac(a2-6)Gal(b1-4)GlcNAc(b1-3)Gal(b1-4)GlcNAc(b1-3)Gal(b1-4)GlcNAc
How it was run: as §1

[21] = target: Neu5Ac(a2-6)Gal(b1-4)GlcNAc(b1-3)Gal(b1-4)[Fuc(a1-3)]GlcNAc(b1-3)Gal(b1-4)[Fuc(a1-3)]GlcNAc
How it was run: as §1

[22] = target: Neu5Ac(a2-6)Gal(b1-4)GlcNAc(b1-3)GalNAc
How it was run: as §1

[23] = target: Neu5Ac(a2-6)Gal(b1-4)GlcNAc6S
How it was run: as §1

Neu5Ac(a2-6)GalNAc = target: Neu5Ac(a2-6)GalNAc
How it was run: as §1

[24] = target: Neu5Ac(a2-6)GalNAc(b1-4)GlcNAc
How it was run: as §1

[25] = target: Neu5Ac(a2-6)GlcNAc(b1-4)GlcNAc
How it was run: as §1

[26] = target: Neu5Ac(a2-6)GlcNAc(b1-4)GlcNAc(b1-4)GlcNAc
How it was run: as §1

Neu5Ac(a2-8)Neu5Ac = target: Neu5Ac(a2-8)Neu5Ac
How it was run: as §1

[27] = target: Neu5Ac(a2-8)Neu5Ac(a2-3)Gal(b1-4)Glc
How it was run: as §1

[28] = target: Neu5Ac(a2-8)Neu5Ac(a2-3)[GalNAc(b1-4)]Gal(b1-4)Glc
How it was run: as §1

[29] = target: Neu5Ac(a2-8)Neu5Ac(a2-8)Neu5Ac
How it was run: as §1

[30] = target: Neu5Ac(a2-8)Neu5Ac(a2-8)Neu5Ac(a2-3)Gal(b1-4)Glc
How it was run: as §1

[31] = target: Neu5Ac(a2-8)Neu5Ac(a2-8)Neu5Ac(a2-3)[GalNAc(b1-4)]Gal(b1-4)Glc
How it was run: as §1

[32] = target: Neu5Ac(a2-8)Neu5Ac(a2-8)Neu5Ac(a2-8)Neu5Ac(a2-3)[GalNAc(b1-4)]Gal(b1-4)Glc
How it was run: as §1

[33] = target: Neu5Ac(b2-6)Gal(b1-4)GlcNAc
How it was run: as §1

Neu5Ac(b2-6)GalNAc = target: Neu5Ac(b2-6)GalNAc
How it was run: as §1

[34] = target: Neu5Ac9Ac(a2-3)Gal(b1-3)GlcNAc
How it was run: as §1

[35] = target: Neu5Ac9Ac(a2-3)Gal(b1-4)GlcNAc
How it was run: as §1

[36] = target: Neu5Ac9Ac(a2-6)Gal(b1-4)GlcNAc
How it was run: as §1

[37] = target: Neu5Gc(a2-3)Gal(b1-3)GlcNAc
How it was run: as §1

[38] = target: Neu5Gc(a2-3)Gal(b1-3)[Fuc(a1-4)]GlcNAc
How it was run: as §1

Neu5Gc(a2-3)Gal(b1-4)Glc = target: Neu5Gc(a2-3)Gal(b1-4)Glc
How it was run: as §1

[39] = target: Neu5Gc(a2-3)Gal(b1-4)GlcNAc
How it was run: as §1

[40] = target: Neu5Gc(a2-3)Gal(b1-4)[Fuc(a1-3)]GlcNAc
How it was run: as §1

[41] = target: Neu5Gc(a2-6)Gal(b1-4)GlcNAc
How it was run: as §1

Neu5Gc(a2-6)GalNAc = target: Neu5Gc(a2-6)GalNAc
How it was run: as §1

[42] = target: Neu5Gc(b2-6)Gal(b1-4)GlcNAc
How it was run: as §1

B1: SAG1 (Toxoplasma gondii), P13664 (protein)
chain: MSVSLHHFIISSGFLTSMFPKAVRRAVTAGVFAAPTLMSFLRCGVMASDPPLVANQVVTCPDKKSTAAVILTPTENHFTLKCPKTALTEPPTLAYSPNRQICPAGTTSSCTSKAVTLSSLIPEAEDSWWTGDSASLDTAGIKLTVPIEKFPVTTQTFVVGCIKGDDAQSCMVTVTVQARASSVVNNVARCSYGADSTLGPVKLSAEGPTTMTLVCGKDGVKVPQDNNQYCSGTTLTGCNEKSFKDILPKLTENPWQGNASSDKGATLTIKKEAFPAESKSVIIGCTGGSPEKHHCTVKLEFAGAAGSAKSAAGTASHVSIFAMVIGLIGSIAACVA
glycan array binding signal (z-score) [1]: 0.117 | glycan array binding signal (z-score) (Neu5Ac(a2-3)GalNAc): -0.306 | glycan array binding signal (z-score) [2]: -0.667 | glycan array binding signal (z-score) [3]: -0.532 | glycan array binding signal (z-score) [4]: 0.393 | glycan array binding signal (z-score) [5]: 0.302 | glycan array binding signal (z-score) [6]: -0.35 | glycan array binding signal (z-score) (Neu5Ac(a2-6)Gal): -0.051 | glycan array binding signal (z-score) (Neu5Ac(a2-6)Gal(b1-4)Glc): -0.146 | glycan array binding signal (z-score) [7]: -0.366 | glycan array binding signal (z-score) [8]: 0.755 | glycan array binding signal (z-score) [9]: 0.036 | glycan array binding signal (z-score) [10]: 0.059 | glycan array binding signal (z-score) [11]: 0.028 | glycan array binding signal (z-score) [12]: 0.662 | glycan array binding signal (z-score) [13]: 0.147 | glycan array binding signal (z-score) [14]: 0.715 | glycan array binding signal (z-score) [15]: 0.025 | glycan array binding signal (z-score) [16]: -0.2 | glycan array binding signal (z-score) [17]: 0.386 | glycan array binding signal (z-score) [18]: -0.009 | glycan array binding signal (z-score) [19]: -0.56 | glycan array binding signal (z-score) [20]: -0.039 | glycan array binding signal (z-score) [21]: 1.11 | glycan array binding signal (z-score) [22]: -0.209 | glycan array binding signal (z-score) [23]: 0.07 | glycan array binding signal (z-score) (Neu5Ac(a2-6)GalNAc): -0.03 | glycan array binding signal (z-score) [24]: -0.481 | glycan array binding signal (z-score) [25]: 0.574 | glycan array binding signal (z-score) [26]: -0.384 | glycan array binding signal (z-score) (Neu5Ac(a2-8)Neu5Ac): 0.023 | glycan array binding signal (z-score) [27]: -0.543 | glycan array binding signal (z-score) [28]: 0.972 | glycan array binding signal (z-score) [29]: 0.35 | glycan array binding signal (z-score) [30]: -1.02 | glycan array binding signal (z-score) [31]: 1.02 | glycan array binding signal (z-score) [32]: -0.241 | glycan array binding signal (z-score) [33]: -0.487 | glycan array binding signal (z-score) (Neu5Ac(b2-6)GalNAc): -0.35 | glycan array binding signal (z-score) [34]: -1.11 | glycan array binding signal (z-score) [35]: -0.027 | glycan array binding signal (z-score) [36]: -1.11 | glycan array binding signal (z-score) [37]: 0.479 | glycan array binding signal (z-score) [38]: 0.031 | glycan array binding signal (z-score) (Neu5Gc(a2-3)Gal(b1-4)Glc): 0.776 | glycan array binding signal (z-score) [39]: -0.231 | glycan array binding signal (z-score) [40]: 0.199 | glycan array binding signal (z-score) [41]: -0.403 | glycan array binding signal (z-score) (Neu5Gc(a2-6)GalNAc): 0.136 | glycan array binding signal (z-score) [42]: 0.582

Source: the supplement of paper PMC8728848
